Experimental data from PubChem BioAssay AID1259415 (National Center for Advancing Translational Sciences (NCATS), 2018).
Values joined by “and” are separate entries in the source; they are usually repeats but may differ in a detail not shown here. Equal values may be shown once. In all, about 410,000 compounds went through this assay and about 18,000 (4.4%) were called active. This list was built around the results that the source calls inconclusive (neither active nor inactive); the mix of calls is not that of the screen. Cut-off read from the data, not from the text of the source: active = activity change below about -60%; inconclusive = no clear call, values can overlap the other calls; inactive = above about -39%.

Test: qHTS Assay for inhibitors of the human cytomegalovirus (HCMV)
Conditions: HFF cells, HCMV-luciferase reporter, 72 h; at 57.5 µM; hits give low values
How it was run: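 Steps: HFFs plated, 16 h 37C; compounds added; HCMV-luciferase added to MOI 1 PFU/cell; 72 h 37C; OneGlo reagent, 5 min room temperature; luminescence read, normalized to controls.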
% is set by controls: 0 for no effect and ±100 for the full control effect.

| SMILES | activity change, negative = inhibition |
| --- | --- |
| CC1CCN(CCC(=O)Nc2ccc(Br)cc2)CC1 | active: -67.9% |
| CCN(CC)C(=O)CSc1nc2cc3c(cc2c(=O)n1Cc1ccc2c(c1)OCO2)OCO3 | inconclusive: -46.7% |
| CC1CCc2sc(C(=O)N(C)CC(=O)Nc3cccc(F)c3)cc2C1 (stereo not given) | inconclusive: -47.5% |
| O=C(NCCSCc1ccc(Cl)cc1Cl)c1ccc(CN2CCOCC2)cc1 | inconclusive: -48% |
| OCC(Cc1ccccc1)Nc1c2ccccc2nc2ccccc12 (stereo not given) | active: -62.5% |
| Cn1nc(C(=O)OCC(=O)Nc2ccc(F)cc2Cl)c2ccccc2c1=O | inactive: 14.6% |
| CCc1ccc(NC(=O)CSc2ccc(-c3ccccn3)nn2)cc1 | inconclusive: -44.7% and inconclusive: -50.9% |
| Nc1nonc1-n1nnc(C(=O)N/N=C/c2cccs2)c1-c1ccc2c(c1)OCO2 | inconclusive: 0% |
| Cc1ccc2c(C)nc(Nc3nc(CSc4nc5ccccc5[nH]4)cc(=O)[nH]3)nc2c1 | inconclusive: -50.1% |
| Nc1c(C(=O)NCc2ccc(Cl)cc2)sc2nc3c(c(C(F)(F)F)c12)CCC3 | inconclusive: -44.3% |
| COc1cc(/C=N/N=C2/NC(=O)C(Cc3ccc(F)cc3)S2)ccc1O (stereo not given) | inactive: -19.3% |
| O=C1CC2OCC=C3CN4CCC56c7cc([N+](=O)[O-])ccc7N1C5C2C3CC46 (stereo not given) | active: -88.2% |
| Cc1ccccc1CN1C(=O)[C@@H]2Cc3c([nH]c4ccccc34)C(C)(C)N2C1=O | inactive: -4.23% |
| CC(C)NS(=O)(=O)c1ccc(OCC(=O)N2CCN(Cc3ccc4c(c3)OCO4)CC2)c(Cl)c1 | active: -68.3% |
| COc1ccc(CC2(CO)CCN(Cc3ccc4c(c3)CCO4)CC2)cc1 | inconclusive: -49.6% |
| O=S(=O)(c1ccccc1C(F)(F)F)N1CCN(c2ncnc3sccc23)CC1 | inconclusive: -43.8% |
| Cc1ccc(CCNC(=O)c2c[nH]c3ccc(S(=O)(=O)Nc4ccc(C)cc4C)cc3c2=O)cc1 | inconclusive: -44.4% |
| COc1ccccc1-n1c(SCC(=O)O)nc2sc3c(c2c1=O)CCC3 | inconclusive: -43.9% |
| Cc1ccccc1C(=O)Nc1ccc(OCc2cc(=O)n3ccccc3n2)cc1 | inconclusive: -41.2% |
| COc1cc(C=C2C(=O)OC(c3ccccc3)OC2=O)cc(Br)c1O (stereo not given) | inactive: 3.07% |
| COc1ccc(C(C)NC(=O)C2CCN(CCCc3ccccc3)CC2)cc1OC (stereo not given) | inactive: -13.1% |
| OCCNCc1cc(Br)ccc1OCc1ccc(F)cc1 | inconclusive: -41.8% |

| SMILES | activity change, negative = inhibition |
| --- | --- |
| CCN(CC)CCOc1ccc(Br)cc1 | inconclusive: -41% |
| COc1ccccc1-c1cc2nc(C)c(CCC(=O)O)c(C)n2n1 | inconclusive: -57.7% |
| CCOc1ccc(NC(=O)CSC2=C(C#N)C(c3ccc4c(c3)OCO4)CC(=O)N2)cc1 (stereo not given) | inconclusive: -53.8% |
| Cc1ccc(C(C)(C)NC(=O)C2CCC(=O)N(Cc3ccccc3F)C2)cc1 (stereo not given) | inconclusive: -44.8% |
| O=C(CCn1c(=O)oc2ccc(Cl)cc21)N1CCN(Cc2ccccc2)CC1 | inconclusive: -54.6% |
| COc1cc(NC(=O)c2cc3c(s2)-c2ccccc2OC3)cc(OC)c1OC | inconclusive: -58.1% |
| OCCCNC(=S)Nc1ccc(Oc2ccccc2)cc1 | inconclusive: -55.9% |
| COC(=O)CCNC(=O)NC(CCC(C)C)c1c(-n2cccc2)sc2c1CCN(C)C2 (stereo not given) | inconclusive: -40.7% |
| CC(C)(C)OC(=O)NCCCC[C@H](NC(=O)c1nc[nH]c1C(=O)N[C@@H](CCCCNC(=O)OC(C)(C)C)C(=O)OC(C)(C)C)C(=O)OC(C)(C)C | inconclusive: -41.7% |
| S=C(Nc1ccc(Cl)c(Cl)c1)NC1CCN(Cc2ccccc2)CC1 | active: -78.3% |
| COc1cccc(C(=O)N(c2ccc(OC)cc2OC)C2C=CS(=O)(=O)C2)c1 (stereo not given) | inactive: 5.14% |
| COc1cc2nc(CN3CCN(S(=O)(=O)c4c(F)cccc4F)CC3)[nH]c(=O)c2cc1OC | inconclusive: -54% |
| O=C(NCCNCc1cccs1)c1ccccc1F | inconclusive: -53.4% |
| CCN1CCN(c2ccc(NC(=O)c3ccc4c(c3)[nH]c(=O)n4Cc3ccc(OC)cc3)cc2)CC1 | inconclusive: -50.7% |
| CCOC(=O)N1CCN(C(=O)COC(=O)C2CCN(S(=O)(=O)c3ccc(C)c(C)c3)CC2)CC1 | inconclusive: -48.9% |
| O=C(Nc1cccc(F)c1)Nc1ccccn1 | inactive: 70.9% |
| NC(N)=N/N=C/c1ccc(Cl)cc1Cl | inactive: -3.15% |
| Cc1ccc(NC(=O)Cn2c(=O)c3ccccc3n3nncc23)cc1 | inactive: 5.88% |
| COc1cccc(NC(=O)c2sc3nc(C)c(C(=O)Nc4ccc(Cl)cc4)c(-c4ccc(Br)cc4)c3c2N)c1 | inactive: 45.1% |
| O=C(NC(=S)Nc1ccc2c(c1)OCCO2)c1cccc2ccccc12 | inconclusive: -52.5% |
| COc1ccc2c(CNCc3ccccc3OC)c(C(=O)O)n(Cc3ccc(F)cc3Cl)c2c1 | inactive: 7.39% |
| O=C(Nc1cccs1)NC1CCCC1 | inconclusive: -44.4% |

| SMILES | activity change, negative = inhibition |
| --- | --- |
| Cc1cccc(NC(=O)c2sc3nc(-c4ccccc4)cn3c2C)c1C | inactive: 1.66% |
| COc1ccc(-c2noc(CCCC(=O)O)n2)cc1 | inconclusive: -47.4% |
| COc1cccc(CNC(=S)Nc2cccc(Cl)c2C)c1 | inconclusive: -46.8% |
| Cn1nc(-c2ccccc2)c(CSc2ccccc2)c1Cl | inactive: -12.7% |
| COc1ccc(CCNC(=O)c2ccc(N(C)S(=O)(=O)c3ccccc3)cc2)cc1 | inactive: 0% |
| COc1ccc(C2CC(C(F)(F)F)n3nc(C(=O)NCc4cn(C)nc4C)c(Cl)c3N2)cc1 (stereo not given) | active: -72% |
| COc1ccc(CN2C(=O)N(c3ccc(F)cc3)C(=O)C2CC(=O)Nc2cc(OC)cc(OC)c2)cc1 (stereo not given) | inconclusive: -41.6% |
| O=C1CN2CCC1C/C2=C\c1ccnc2c(Cl)cccc12 (stereo not given) | inconclusive: -50.7% |
| O=S1(=O)c2ccc(Br)cc2OC[C@H](c2ccccc2)N1Cc1ccccc1 | inactive: -3.08% |
| O=C(Cn1nc(C(F)(F)F)c2c1CCC2)Nc1ccccc1C(F)(F)F | inactive: 5.87% |
| Cc1ccc(S(=O)(=O)CC(CN2CCCCC2)N2CCCCC2)cc1 (stereo not given) | active: -98.8% |
| COc1ccc(C)cc1NC(=O)c1cc(S(=O)(=O)N2CCC(C)CC2)cn1C | inconclusive: -46% |
| Cc1nn(C(=O)COc2ccccc2Br)c(C)c1Sc1ccccc1 | inactive: 11.5% |
| O=C(CS(=O)c1ccc(C(F)(F)F)cc1[N+](=O)[O-])Oc1ccccc1 (stereo not given) | inconclusive: -55.8% |
| CCCS(=O)(=O)N1CCN(S(=O)(=O)c2ccccc2)CC1 | inactive: 19.6% |
| Cc1cc(-c2nnco2)c(C)n1-c1ccccc1 | inactive: 70.3% |
| CC1(CC(=O)NNC(=O)Nc2ccccc2)OCCCO1 | inconclusive: -40.1% |
| CC(=O)c1c(C)oc2ccc(N(C(=O)Oc3ccccc3)S(=O)(=O)c3ccccc3)cc12 | inactive: 34.9% |
| CC(C)(C)c1ccccc1NC(=O)Nc1nc(C(N)c2ccccc2Cl)cs1 (stereo not given) | inconclusive: -49.2% |
| Cc1sc2nc[nH]c(=O)c2c1-c1ccc(F)cc1 | inconclusive: -49.8% |
| Cc1ccc(NC(=O)COC(=O)c2cccnc2)c(C)c1 | inconclusive: -42.4% |
| Cc1c(-n2c(SCC(=O)N(C)C3CCS(=O)(=O)C3)nc3ccccc3c2=O)c(=O)n(-c2ccccc2)n1C (stereo not given) | inconclusive: -48% |

| SMILES | activity change, negative = inhibition |
| --- | --- |
| Cc1ccccc1OCC(=O)NCCNC(=O)c1ccccn1 | inconclusive: -40.8% |
| O=C(CSc1ccccc1C(=O)N1CCN(c2ccc([N+](=O)[O-])cc2)CC1)N1CCCC1 | inconclusive: -45.3% |
| O=C(O)CC/C(=C\c1cccc(NC(=O)c2ccccc2Cl)c1)c1nc2ccccc2s1 | inconclusive: -41.7% |
| CCCCCCCC[n+]1cccc(C(=O)N2c3c(nc(N)[nH]c3=O)NC(C)C2C)c1 (stereo not given) | inconclusive: -49.7% |
| COc1ccc(-c2cc(C(F)(F)F)nc(SCC(=O)Nc3ccc4c(c3)OCO4)n2)cc1OC | inconclusive: -53.4% |
| COc1ccccc1OCc1ccc(C(=O)N2CCN3CCCC3C2)cc1 (stereo not given) | inconclusive: -47.1% |
| Cc1ccc(-c2csc(NC(=O)CCNC(=O)c3ccccc3Cl)n2)cc1 | inconclusive: -54% |
| CCOC(=O)N1CCN(Cc2nc3cc(NC(=O)C(C)C)ccc3n2C(C)C)CC1 | inconclusive: -43.7% |
| O=C(Nc1ccccc1)c1c(F)c(F)c(F)c(F)c1F | inconclusive: -59% |
| Cc1oc(-c2cc(F)ccc2F)nc1CN1CCN(c2cnccn2)CC1 | inactive: -18.9% |
| O=C(c1ccncc1)N1N=C2CCCCCC2C1(O)C(F)(F)F (stereo not given) | inconclusive: -52.5% |
| Fc1ccc(-c2nn3c(C4COc5ccccc5O4)nnc3s2)cc1 (stereo not given) | inactive: -23.3% |
| CCOc1cccc(C2c3[nH]c4ccccc4c3CCN2C(=O)CSCc2ccc(F)cc2)c1 (stereo not given) | inconclusive: -44.8% |
| CN(C)S(=O)(=O)c1cccc(-c2nn(-c3ccccc3)cc2/C=C2\SC(=S)N(CC(=O)O)C2=O)c1 | inconclusive: -42.1% |
| CN(C)/C=N/c1sc2c(c1C#N)CCCCC2 | inactive: -35.1% |
| Cc1ccc(-n2ncc3c2CCCC3NC(=O)c2ocnc2C)cc1C (stereo not given) | active: -89.5% |
| Cc1cccc(CC(=O)NC2CCN(C)CC2)c1 | inactive: 3.49% |
| CC1CCN(C(=O)c2[nH]cnc2C(=O)N(C)Cc2ccccc2)CC1 | active: -61.7% |
| Cc1ccc(Cc2c(-c3cccc(Br)c3)nc3cc(C)c(Br)c(C)n23)cc1 | inactive: 49% |

Nothing new here: three of the compounds above.

| SMILES | activity change, negative = inhibition |
| --- | --- |
| COc1cccc(C(=O)N(c2ccc(OC)cc2OC)C2C=CS(=O)(=O)C2)c1 (stereo not given) | inactive: 5.14% |
| COc1cc2nc(CN3CCN(S(=O)(=O)c4c(F)cccc4F)CC3)[nH]c(=O)c2cc1OC | inconclusive: -54% |
| O=C(NCCNCc1cccs1)c1ccccc1F | inconclusive: -53.4% |
